Reference: the supplement of paper PMC10849652
This is one part of the list.

By UniProt entry, the sequences of proteins in these tests, tags left out. Where a name states a change or a piece, a line headed by the entry shows the natural chain unless it says otherwise.
UniProt Q9UEU0: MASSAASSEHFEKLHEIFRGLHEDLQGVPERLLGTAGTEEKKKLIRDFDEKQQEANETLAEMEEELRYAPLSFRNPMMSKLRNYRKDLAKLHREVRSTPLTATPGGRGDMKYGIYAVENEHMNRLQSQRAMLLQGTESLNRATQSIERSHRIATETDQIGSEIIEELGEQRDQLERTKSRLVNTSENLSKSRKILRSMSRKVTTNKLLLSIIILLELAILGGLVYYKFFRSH
UniProt Q9BV38: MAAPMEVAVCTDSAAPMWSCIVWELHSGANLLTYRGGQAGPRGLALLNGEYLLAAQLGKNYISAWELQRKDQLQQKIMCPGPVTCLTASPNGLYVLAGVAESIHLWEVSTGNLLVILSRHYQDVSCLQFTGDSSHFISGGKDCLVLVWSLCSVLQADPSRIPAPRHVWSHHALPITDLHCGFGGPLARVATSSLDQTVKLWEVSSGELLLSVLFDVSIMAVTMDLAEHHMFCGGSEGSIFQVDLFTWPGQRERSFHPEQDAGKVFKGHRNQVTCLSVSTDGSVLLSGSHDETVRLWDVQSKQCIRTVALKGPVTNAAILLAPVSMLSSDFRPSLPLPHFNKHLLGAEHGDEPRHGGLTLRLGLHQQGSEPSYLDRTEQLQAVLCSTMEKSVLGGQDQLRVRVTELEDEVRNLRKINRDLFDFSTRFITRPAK
UniProt Q9NRW7: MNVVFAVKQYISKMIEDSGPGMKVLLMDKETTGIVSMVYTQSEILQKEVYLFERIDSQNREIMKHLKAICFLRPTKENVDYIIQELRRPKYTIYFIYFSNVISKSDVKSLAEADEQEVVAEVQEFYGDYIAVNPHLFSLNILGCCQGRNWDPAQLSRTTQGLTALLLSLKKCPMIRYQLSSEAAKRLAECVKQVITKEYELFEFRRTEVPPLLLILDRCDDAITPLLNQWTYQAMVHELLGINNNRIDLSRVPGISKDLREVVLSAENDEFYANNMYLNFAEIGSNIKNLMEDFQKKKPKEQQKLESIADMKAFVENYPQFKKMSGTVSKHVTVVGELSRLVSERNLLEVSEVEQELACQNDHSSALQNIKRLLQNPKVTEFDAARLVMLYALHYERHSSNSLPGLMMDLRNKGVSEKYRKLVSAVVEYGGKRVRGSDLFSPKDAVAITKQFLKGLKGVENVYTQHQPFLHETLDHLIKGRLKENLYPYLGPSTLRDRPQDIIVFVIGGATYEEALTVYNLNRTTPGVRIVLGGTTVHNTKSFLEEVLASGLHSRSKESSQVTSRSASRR
UniProt Q9H9H4: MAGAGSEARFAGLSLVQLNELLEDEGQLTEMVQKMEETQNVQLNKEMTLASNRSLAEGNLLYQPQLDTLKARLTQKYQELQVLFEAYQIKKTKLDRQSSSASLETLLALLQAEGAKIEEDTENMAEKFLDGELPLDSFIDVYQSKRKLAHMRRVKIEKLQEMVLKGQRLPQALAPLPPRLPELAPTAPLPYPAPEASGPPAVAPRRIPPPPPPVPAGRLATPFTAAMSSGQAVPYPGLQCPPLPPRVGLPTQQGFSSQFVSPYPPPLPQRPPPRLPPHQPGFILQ
UniProt P51811: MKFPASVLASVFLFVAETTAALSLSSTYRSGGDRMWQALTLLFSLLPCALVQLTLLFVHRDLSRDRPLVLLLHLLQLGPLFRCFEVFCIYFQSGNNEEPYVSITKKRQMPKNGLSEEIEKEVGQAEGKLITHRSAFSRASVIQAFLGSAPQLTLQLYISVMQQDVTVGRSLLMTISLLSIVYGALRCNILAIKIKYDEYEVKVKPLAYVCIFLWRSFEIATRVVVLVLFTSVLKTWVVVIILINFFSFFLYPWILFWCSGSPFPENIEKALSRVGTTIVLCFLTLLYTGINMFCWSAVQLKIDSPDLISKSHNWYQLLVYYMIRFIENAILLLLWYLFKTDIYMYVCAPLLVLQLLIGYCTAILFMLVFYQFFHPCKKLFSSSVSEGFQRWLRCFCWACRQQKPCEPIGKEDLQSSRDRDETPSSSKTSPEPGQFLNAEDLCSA
UniProt Q8NEZ3: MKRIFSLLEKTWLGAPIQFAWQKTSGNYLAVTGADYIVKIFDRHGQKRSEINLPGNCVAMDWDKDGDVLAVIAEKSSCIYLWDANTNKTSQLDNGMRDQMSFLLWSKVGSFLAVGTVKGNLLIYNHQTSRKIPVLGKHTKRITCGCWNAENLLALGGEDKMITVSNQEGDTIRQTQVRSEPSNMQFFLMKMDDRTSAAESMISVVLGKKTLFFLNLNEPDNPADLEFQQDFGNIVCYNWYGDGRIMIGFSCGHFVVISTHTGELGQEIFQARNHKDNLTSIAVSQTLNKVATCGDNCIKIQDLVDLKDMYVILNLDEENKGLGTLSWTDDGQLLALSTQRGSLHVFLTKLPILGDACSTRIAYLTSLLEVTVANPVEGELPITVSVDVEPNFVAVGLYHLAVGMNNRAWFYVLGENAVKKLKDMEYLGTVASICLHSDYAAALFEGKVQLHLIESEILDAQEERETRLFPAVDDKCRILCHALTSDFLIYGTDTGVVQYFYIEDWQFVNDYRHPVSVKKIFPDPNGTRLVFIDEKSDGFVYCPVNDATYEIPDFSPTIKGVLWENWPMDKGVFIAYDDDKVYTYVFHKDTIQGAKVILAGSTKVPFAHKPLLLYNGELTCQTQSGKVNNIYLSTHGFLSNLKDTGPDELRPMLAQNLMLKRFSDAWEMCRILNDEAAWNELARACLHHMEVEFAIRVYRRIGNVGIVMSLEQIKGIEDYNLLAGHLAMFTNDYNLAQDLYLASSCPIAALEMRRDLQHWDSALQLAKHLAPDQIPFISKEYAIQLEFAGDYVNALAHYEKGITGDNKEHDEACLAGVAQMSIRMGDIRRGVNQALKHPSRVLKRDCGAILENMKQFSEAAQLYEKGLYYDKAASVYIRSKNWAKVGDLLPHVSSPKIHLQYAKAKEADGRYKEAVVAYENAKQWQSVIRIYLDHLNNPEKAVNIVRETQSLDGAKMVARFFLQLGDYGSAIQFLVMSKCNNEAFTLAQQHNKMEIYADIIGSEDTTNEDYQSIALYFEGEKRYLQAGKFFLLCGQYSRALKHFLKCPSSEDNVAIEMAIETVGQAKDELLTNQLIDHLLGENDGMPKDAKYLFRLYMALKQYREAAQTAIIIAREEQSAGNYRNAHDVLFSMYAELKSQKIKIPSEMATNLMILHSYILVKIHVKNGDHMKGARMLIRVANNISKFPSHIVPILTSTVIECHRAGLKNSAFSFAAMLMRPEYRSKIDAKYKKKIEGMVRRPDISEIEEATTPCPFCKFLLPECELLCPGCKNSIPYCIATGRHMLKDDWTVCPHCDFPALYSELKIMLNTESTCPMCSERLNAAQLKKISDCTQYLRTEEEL
UniProt Q9NZC7: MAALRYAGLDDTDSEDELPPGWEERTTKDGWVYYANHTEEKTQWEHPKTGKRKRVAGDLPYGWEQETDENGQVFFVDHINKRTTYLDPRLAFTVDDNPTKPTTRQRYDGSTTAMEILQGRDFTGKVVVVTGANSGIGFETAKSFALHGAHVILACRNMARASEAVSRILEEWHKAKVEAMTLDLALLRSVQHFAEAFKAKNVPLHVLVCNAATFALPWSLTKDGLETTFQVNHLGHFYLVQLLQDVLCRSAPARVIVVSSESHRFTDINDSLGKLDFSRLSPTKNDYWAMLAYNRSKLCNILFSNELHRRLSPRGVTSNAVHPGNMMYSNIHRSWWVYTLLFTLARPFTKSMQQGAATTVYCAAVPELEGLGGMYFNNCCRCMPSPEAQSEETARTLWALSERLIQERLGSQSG
UniProt Q5MNZ9: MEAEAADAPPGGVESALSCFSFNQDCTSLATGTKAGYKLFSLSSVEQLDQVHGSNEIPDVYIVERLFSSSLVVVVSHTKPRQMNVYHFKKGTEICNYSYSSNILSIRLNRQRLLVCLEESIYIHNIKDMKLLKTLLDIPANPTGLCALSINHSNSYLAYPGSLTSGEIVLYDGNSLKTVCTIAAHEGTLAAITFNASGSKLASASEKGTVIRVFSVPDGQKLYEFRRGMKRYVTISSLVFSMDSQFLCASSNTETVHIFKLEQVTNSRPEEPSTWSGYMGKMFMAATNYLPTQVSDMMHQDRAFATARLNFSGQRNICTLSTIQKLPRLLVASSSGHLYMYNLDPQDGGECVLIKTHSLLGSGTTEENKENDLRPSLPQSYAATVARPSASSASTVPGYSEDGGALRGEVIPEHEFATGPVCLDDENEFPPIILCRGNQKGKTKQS
UniProt Q9NQA3: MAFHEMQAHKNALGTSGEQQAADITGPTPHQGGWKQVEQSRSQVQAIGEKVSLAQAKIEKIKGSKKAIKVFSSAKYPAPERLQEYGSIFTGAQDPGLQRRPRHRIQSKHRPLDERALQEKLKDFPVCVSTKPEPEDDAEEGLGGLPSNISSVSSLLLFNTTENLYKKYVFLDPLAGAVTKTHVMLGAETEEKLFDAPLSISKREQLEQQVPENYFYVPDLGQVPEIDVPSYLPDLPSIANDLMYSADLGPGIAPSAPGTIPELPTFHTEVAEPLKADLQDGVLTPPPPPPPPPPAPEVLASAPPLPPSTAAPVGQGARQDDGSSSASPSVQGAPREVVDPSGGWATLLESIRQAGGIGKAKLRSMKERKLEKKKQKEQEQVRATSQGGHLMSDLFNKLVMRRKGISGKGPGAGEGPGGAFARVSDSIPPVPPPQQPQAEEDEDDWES
UniProt Q8TBY9: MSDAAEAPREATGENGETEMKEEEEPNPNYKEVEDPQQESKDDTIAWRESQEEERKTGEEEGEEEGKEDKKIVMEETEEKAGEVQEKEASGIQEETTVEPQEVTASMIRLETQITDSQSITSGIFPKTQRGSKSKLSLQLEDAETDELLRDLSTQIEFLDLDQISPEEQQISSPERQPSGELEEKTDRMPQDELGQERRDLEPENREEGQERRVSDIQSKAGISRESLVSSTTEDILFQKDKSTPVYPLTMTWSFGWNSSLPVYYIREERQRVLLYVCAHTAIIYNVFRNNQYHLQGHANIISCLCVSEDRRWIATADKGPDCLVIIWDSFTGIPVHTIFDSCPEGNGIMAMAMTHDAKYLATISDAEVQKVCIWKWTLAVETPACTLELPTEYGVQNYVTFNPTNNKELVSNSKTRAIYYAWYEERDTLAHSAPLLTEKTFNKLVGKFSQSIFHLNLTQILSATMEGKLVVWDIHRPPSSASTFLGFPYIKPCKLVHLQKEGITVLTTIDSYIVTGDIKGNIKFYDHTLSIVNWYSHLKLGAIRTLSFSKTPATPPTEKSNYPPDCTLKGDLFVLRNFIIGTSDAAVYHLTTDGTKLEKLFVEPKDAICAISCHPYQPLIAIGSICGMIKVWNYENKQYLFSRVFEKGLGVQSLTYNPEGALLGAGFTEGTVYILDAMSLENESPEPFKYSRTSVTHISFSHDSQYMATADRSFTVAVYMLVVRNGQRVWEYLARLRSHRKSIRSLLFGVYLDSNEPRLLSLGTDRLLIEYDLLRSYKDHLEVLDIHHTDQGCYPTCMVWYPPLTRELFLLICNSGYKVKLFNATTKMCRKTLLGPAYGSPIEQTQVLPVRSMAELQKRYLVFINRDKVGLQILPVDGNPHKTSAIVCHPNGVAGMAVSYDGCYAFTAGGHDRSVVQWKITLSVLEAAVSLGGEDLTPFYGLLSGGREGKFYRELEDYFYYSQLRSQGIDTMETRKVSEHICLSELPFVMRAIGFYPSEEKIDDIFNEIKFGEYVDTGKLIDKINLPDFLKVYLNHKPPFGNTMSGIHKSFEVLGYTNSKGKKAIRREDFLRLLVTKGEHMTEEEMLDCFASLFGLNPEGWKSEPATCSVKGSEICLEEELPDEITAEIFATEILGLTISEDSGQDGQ
UniProt P17861: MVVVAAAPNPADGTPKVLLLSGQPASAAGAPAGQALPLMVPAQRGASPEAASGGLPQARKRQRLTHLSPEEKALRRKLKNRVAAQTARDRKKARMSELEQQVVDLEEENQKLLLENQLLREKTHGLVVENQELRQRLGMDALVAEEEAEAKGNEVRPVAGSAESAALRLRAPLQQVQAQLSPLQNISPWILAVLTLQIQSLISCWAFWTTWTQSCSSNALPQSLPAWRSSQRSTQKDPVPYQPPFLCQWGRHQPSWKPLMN

Key:
Experiment in all cases: log2 fold change, soluble protein after heating vs DMSO (PISA); higher = thermal stabilisation; K562 lysate, 10 uM; active = over 0.2 and 3.5 SD of the protein, either way, in both replicates (recomputed)
[1] = compound: CCCS(=O)(=O)Nc1ccc(F)c(C(=O)c2c[nH]c3ncc(-c4ccc(Cl)cc4)cc23)c1F [vemurafenib]
How it was run: (§1)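 Log-two fold change in thermal stability relative to solvent controls is reported from duplicates. For each sample, crude K562 extract from dounce-homogenised pellets in PBS pH 7.4 with 1 mM MgCl2, at 1 mg/mL protein, was treated with 10 μM compound for 30 min. Aliquots heated for 3 min across 48°C-58°C were pooled, brought to 0.5% NP-40 at 4°C and cleared at 21,000xg for 90 min. The supernatant was quantified by TMTpro 16plex LC-MS/MS with channel sums equalised.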

[2] = compound: CCn1cc(-c2ccnc3[nH]c(-c4cccc(CN(C)C)c4)cc23)c(-c2ccc(NC(=O)N(C)C)cc2)n1
How it was run: as §1

[3] = compound: CN1CCC(CNc2ccc3ncc(-c4cccc(OC(F)(F)F)c4)n3n2)CC1
How it was run: as §1

[4] = compound: C=CC(=O)N1CCC[C@@H](n2nc(-c3ccc(Oc4ccccc4)cc3)c3c(N)ncnc32)C1 [ibrutinib]
How it was run: as §1

[5] = compound: CC(=O)c1cnc2ccc(-c3cc(Cl)c(O)c(Cl)c3)nc2c1N[C@H]1CC[C@H](CN(C)C)CC1
How it was run: as §1

[6] = compound: CC(C)(C)Cn1c(N)nc2ccc(-c3[nH]c(C(C)(C)C)nc3-c3ccc(F)cc3)nc21 [ralimetinib]
How it was run: as §1

[7] = compound: CC(C)(O)CC(=O)NCCn1ccc2ncnc(Nc3ccc(Oc4cccc(C(F)(F)F)c4)c(Cl)c3)c21
How it was run: as §1

[8] = compound: CC(C)C1=C2N=C(C=C(N2N=C1)NCC3=CC=CC=C3)NCCCCCCN
How it was run: as §1

[9] = compound: CC1=C(C(CC(=O)N1)C2=CC=C(C=C2)C(F)(F)F)C(=O)NC3=C(C=C4C(=C3)C=NN4)F
How it was run: as §1

[10] = compound: CC1=C(C2=C(C=C1)C(=O)C3=CC=CC=C3N2CCCN)C
How it was run: as §1

[11] = compound: CC1=C(C=C(C=C1)NC(=O)C2=CC(=CC=C2)C(C)(C)C#N)NC3=CC4=C(C=C3)N=CN(C4=O)C
How it was run: as §1

[12] = compound: CC1=C(C=C(C=C1)NC(=O)C2=CC(=CC=C2)N(C)C)NC(=O)C3=CC=C(C=C3)O
How it was run: as §1

[13] = compound: CC1=CC=C(C=C1)SC2=C3C=C(SC3=CN=C2)C(=O)N
How it was run: as §1

[14] = compound: CCCS(=O)(=O)Nc1ccc(F)c(C(=O)c2c[nH]c3ncc(Cl)cc23)c1F
How it was run: as §1

[15] = compound: CCN(CCCOc1ccc2c(Nc3cc(CC(=O)Nc4cccc(F)c4)[nH]n3)ncnc2c1)CCOP(=O)(O)O [barasertib]
How it was run: as §1

[16] = compound: CC[C@@H]1C(=O)N(C)c2cnc(Nc3ccc(C(=O)NC4CCN(C)CC4)cc3OC)nc2N1C1CCCC1
How it was run: as §1

[17] = compound: CC[C@@H]1C(=O)N(C)c2cnc(Nc3ccc(C(=O)N[C@H]4CC[C@H](N5CCN(CC6CC6)CC5)CC4)cc3OC)nc2N1C(C)C [volasertib]
How it was run: as §1

[18] = compound: CCn1c(C(=O)N(C2CC2)C2CC2)cc2c3c(ncn3C)c(Nc3cc(C)n(C)n3)nc21
How it was run: as §1

[19] = compound: CN1CCN(CCOc2cc(OC3CCOCC3)c3c(Nc4c(Cl)ccc5c4OCO5)ncnc3c2)CC1 [saracatinib]
How it was run: as §1

[20] = compound: CN1CCN(c2nc(C3=C(c4c[nH]c5ccccc45)C(=O)NC3=O)c3ccccc3n2)CC1 [sotrastaurin]
How it was run: as §1

Measured: log2 fold change

WDR13, A0A087X091
inactive: [1] 0.018 | [2] 0.117 | [3] -0.147

VTI1B (UniProt Q9UEU0)
inactive: [4] -0.038 | [5] -0.034 | [6] 0.052 | [7] -0.002 | [8] 0.043 | [9] 0.092 | [10] -0.064 | [11] 0.019 | [12] -0.025 | [13] -0.029 | [14] 0.028 | [15] 0.045 | [16] 0.087 | [17] -0.005 | [18] -0.029 | [2] -0.034 | [3] 0.009 | [19] 0.003 | [20] 0.024

WDR18 (UniProt Q9BV38)
inactive: [4] -0.011 | [5] 0.004 | [6] 0.046 | [7] -0.001 | [8] -0.026 | [9] -0.007 | [10] -0.067 | [11] 0.027 | [12] 0.043 | [13] -0.022 | [1] 0.017 | [14] 0.052 | [15] 0.063 | [16] 0.058 | [17] -0.018 | [18] 0.023 | [2] -0.022 | [3] 0.096 | [19] -0.009 | [20] -0.039

Two records drawn at random from those above, as already listed:
VTI1B (UniProt Q9UEU0)
inactive: [4] -0.038 | [5] -0.034 | [6] 0.052 | [7] -0.002 | [8] 0.043 | [9] 0.092 | [10] -0.064 | [11] 0.019 | [12] -0.025 | [13] -0.029 | [14] 0.028 | [15] 0.045 | [16] 0.087 | [17] -0.005 | [18] -0.029 | [2] -0.034 | [3] 0.009 | [19] 0.003 | [20] 0.024

WDR18 (UniProt Q9BV38)
inactive: [4] -0.011 | [5] 0.004 | [6] 0.046 | [7] -0.001 | [8] -0.026 | [9] -0.007 | [10] -0.067 | [11] 0.027 | [12] 0.043 | [13] -0.022 | [1] 0.017 | [14] 0.052 | [15] 0.063 | [16] 0.058 | [17] -0.018 | [18] 0.023 | [2] -0.022 | [3] 0.096 | [19] -0.009 | [20] -0.039

(further entries)

WARS1 (UniProt G3V277)
inactive: [4] 0.152 | [1] 0.124 | [15] -0.106 | [16] 0.027

WARS1 (UniProt G3V5U1)
inactive: [4] -0.042 | [5] -0.038 | [9] -0.217 | [13] -0.07 | [14] 0.001 | [15] 0.501 | [16] -0.609 | [17] -0.034

VPS45 (UniProt Q9NRW7)
inactive: [4] 0.07 | [5] 0.017 | [6] 0.039 | [7] -0.006 | [8] 0.022 | [9] -0.015 | [10] -0.026 | [11] -0.012 | [12] 0.016 | [13] -0.006 | [1] 0.02 | [14] 0.029 | [15] 0.082 | [16] -0.023 | [17] -0.065 | [18] -0.03 | [2] 0.012 | [3] -0.017 | [19] 0.01 | [20] 0.014

VPS37B (UniProt Q9H9H4)
inactive: [4] 0.024 | [5] 0.014 | [6] -0.055 | [7] 0.009 | [8] -0.028 | [9] 0 | [10] -0.008 | [11] 0.019 | [12] 0.012 | [13] 0.028 | [1] -0.001 | [14] 0.003 | [15] -0.012 | [16] 0.047 | [17] -0.011 | [18] 0.005 | [2] -0.018 | [3] 0.04 | [19] 0.048 | [20] 0.01

XK (UniProt P51811)
inactive: [4] 0.011 | [5] -0.358 | [6] -0.028 | [7] -0.03 | [8] 0.012 | [9] 1.4 | [10] 0.086 | [12] 0.007 | [13] 0.137 | [14] 0.221 | [15] 0.08 | [16] 0.207 | [17] 0.013 | [18] -0.045 | [2] 0.096 | [3] 0.037 | [19] -0.022

XIRP2 isoform 8 (UniProt A4UGR9)
inactive: [4] 0.134 | [5] -0.059 | [6] 0.166 | [7] 0.037 | [9] 0.108 | [12] 0.055 | [13] 0.019 | [14] 0.043 | [15] 0.007 | [17] -0.035 | [18] 0.167

WDR19 (UniProt Q8NEZ3)
inactive: [4] 0.054 | [5] -0.064 | [9] -0.012 | [11] 0.376 | [13] 0.174 | [14] -0.244 | [15] -0.115 | [17] 0.063 | [2] 0.032 | [3] 0.05 | [20] -0.009

WWOX (UniProt Q9NZC7)
inactive: [6] 0.011 | [7] 0.051 | [10] -0.026 | [11] 0.232 | [12] 0.045 | [1] 0.023 | [18] 0.132 | [2] 0.281 | [3] -0.234 | [19] 0.012 | [20] 0.104

WIPI1 (UniProt Q5MNZ9)
inactive: [4] 0.098 | [5] -0.062 | [6] 0.002 | [7] 0.019 | [8] -0.008 | [9] 0.1 | [10] -0.023 | [11] -0.005 | [12] -0.009 | [13] -0.033 | [14] 0.044 | [15] 0.04 | [16] 0.119 | [17] -0.014 | [18] -0.043 | [2] -0.079 | [3] 0.022 | [19] 0.025 | [20] -0.074

WARS1 (UniProt G3V456)
inactive: [5] -0.009 | [13] 0.128 | [14] -0.248 | [17] 0.178

VPS29 (UniProt Q9UBQ0)
inactive: [5] -0.062 | [6] 0.052 | [7] -0.294 | [8] 0.399 | [10] 0.067 | [11] -0.004 | [12] -0.11 | [13] -0.068 | [1] 0.012 | [14] 0.069 | [17] 0.057 | [18] 0.004 | [19] -0.034 | [20] -0.008

WASH6P (UniProt Q9NQA3)
inactive: [4] -0.08 | [15] -0.104

WDR66 (UniProt Q8TBY9)
inactive: [6] -0.04 | [7] -0.276 | [12] -0.062 | [1] 0.15 | [18] -0.307

WDR61 (UniProt Q9GZS3)
inactive: [4] 0.035 | [5] -0.016 | [6] 0.049 | [7] 0.073 | [8] 0.011 | [9] 0.009 | [10] -0.001 | [11] 0.027 | [12] -0.016 | [13] 0.034 | [1] -0.008 | [14] -0.001 | [15] -0.003 | [16] -0.01 | [17] -0.023 | [18] 0.063 | [2] -0.031 | [3] 0.008 | [19] -0.009 | [20] -0.037

VPS35, A0A1W2PP10
inactive: [4] -0.081 | [5] 0.001 | [8] -0.05 | [9] -0.061 | [11] 0.204 | [13] -0.133 | [14] -0.062 | [15] -0.202 | [17] -0.06 | [2] -0.123 | [3] 0.085 | [20] 0.152

XBP1 isoform 2 (UniProt P17861)
inactive: [6] -0.082 | [7] -0.083 | [8] -0.022 | [12] -0.091 | [18] 0.127
